In paper PMC10019571:
These are yes or no findings as the source states them, for the method shown. In cells and extracts the contact can be indirect. Some results given as binding are weak or reduced against the parent protein; the word gives no strength.

Protein sequences, listed by entry. Tags and fused reporters are not part of them.
UniProt P35240: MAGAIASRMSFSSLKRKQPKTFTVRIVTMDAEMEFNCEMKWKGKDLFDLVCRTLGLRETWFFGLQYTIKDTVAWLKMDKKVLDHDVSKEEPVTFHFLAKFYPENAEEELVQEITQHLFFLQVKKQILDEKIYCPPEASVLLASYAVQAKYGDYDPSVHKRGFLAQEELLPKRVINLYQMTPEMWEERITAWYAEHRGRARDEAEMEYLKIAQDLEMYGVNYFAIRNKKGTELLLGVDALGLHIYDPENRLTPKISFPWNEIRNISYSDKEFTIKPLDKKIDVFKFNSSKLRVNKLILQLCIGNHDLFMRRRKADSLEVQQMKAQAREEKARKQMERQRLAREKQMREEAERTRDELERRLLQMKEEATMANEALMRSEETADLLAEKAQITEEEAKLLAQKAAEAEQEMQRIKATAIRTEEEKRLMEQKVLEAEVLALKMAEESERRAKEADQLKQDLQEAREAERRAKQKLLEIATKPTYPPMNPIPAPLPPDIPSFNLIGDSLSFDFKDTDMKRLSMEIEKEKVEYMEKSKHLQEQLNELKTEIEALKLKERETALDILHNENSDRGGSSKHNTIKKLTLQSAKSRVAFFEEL
UniProt O95819: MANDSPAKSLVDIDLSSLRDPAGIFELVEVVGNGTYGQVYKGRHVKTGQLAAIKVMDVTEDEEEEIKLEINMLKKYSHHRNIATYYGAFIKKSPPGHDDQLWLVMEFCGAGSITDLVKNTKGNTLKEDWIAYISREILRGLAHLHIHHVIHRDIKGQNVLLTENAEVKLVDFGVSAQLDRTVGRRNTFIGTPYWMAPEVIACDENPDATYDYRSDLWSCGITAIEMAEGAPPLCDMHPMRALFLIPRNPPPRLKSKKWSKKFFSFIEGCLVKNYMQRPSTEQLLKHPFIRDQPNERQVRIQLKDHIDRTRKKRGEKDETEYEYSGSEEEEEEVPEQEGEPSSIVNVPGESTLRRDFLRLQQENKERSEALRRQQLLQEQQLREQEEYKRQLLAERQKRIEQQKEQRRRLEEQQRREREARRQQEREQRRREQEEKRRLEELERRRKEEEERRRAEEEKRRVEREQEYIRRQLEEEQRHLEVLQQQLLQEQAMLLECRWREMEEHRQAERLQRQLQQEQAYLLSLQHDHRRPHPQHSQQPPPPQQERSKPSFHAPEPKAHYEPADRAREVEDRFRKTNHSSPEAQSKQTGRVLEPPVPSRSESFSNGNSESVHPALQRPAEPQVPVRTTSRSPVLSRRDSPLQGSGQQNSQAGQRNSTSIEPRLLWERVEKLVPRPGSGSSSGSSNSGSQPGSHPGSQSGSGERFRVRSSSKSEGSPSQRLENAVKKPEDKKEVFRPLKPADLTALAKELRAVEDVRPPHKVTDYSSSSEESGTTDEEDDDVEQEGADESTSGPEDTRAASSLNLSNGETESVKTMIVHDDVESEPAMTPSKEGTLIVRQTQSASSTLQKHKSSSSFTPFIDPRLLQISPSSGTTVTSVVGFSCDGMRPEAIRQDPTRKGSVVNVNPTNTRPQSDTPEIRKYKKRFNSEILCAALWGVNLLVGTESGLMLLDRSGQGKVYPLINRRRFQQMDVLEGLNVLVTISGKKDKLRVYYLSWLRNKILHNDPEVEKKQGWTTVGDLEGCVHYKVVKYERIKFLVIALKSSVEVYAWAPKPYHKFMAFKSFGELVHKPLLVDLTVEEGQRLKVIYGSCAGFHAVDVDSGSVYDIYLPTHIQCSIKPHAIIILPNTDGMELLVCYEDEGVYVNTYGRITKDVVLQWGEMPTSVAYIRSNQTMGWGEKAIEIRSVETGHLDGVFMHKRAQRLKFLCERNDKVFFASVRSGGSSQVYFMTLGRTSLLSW

How the values were obtained:
Neurofibromin 2 (NF2) = Neurofibromin 2 (NF2) (UniProt P35240); test: co-IP; endogenous coimmunoprecipitation assay (Fig. 1J); reciprocal co-immunoprecipitation (Figs. 1J and S5E); cells and buffers not shown
[1] = target: mitogen-activated protein kinase kinase kinase kinase 4 (MAP4K4) (UniProt O95819); test: as above

Substance	binding (Neurofibromin 2 (NF2))	binding [1]
mitogen-activated protein kinase kinase kinase kinase 4 (MAP4K4) (from UniProt O95819 1-1239) (enzyme)	binds	
Neurofibromin 2 (NF2) (from UniProt P35240 1-595)		binds
